Assay [1] concerns the target VprLai-R77Q, fused to LexA (HIV-1 (Lai)) (UniProt P05928). As to the kind of experiment: two-hybrid; L40 yeast reporter strain (HIS3 LexA-inducible); Vpr fused to LexA, hCG1, UNG2 or DCAF1 fused to the Gal4 activation domain; growth on medium without histidine.
The target in assay [2] is HIV-1 Vpr of the prototypic HIV-1Lai, fused to LexA (HIV-1 (Lai)) (UniProt P05928). The assay is described as above.

By UniProt entry, the sequences of proteins in these tests, tags left out. Where a name states a change or a piece, a line headed by the entry shows the natural chain unless it says otherwise.
UniProt Q9Y4B6, whole entry: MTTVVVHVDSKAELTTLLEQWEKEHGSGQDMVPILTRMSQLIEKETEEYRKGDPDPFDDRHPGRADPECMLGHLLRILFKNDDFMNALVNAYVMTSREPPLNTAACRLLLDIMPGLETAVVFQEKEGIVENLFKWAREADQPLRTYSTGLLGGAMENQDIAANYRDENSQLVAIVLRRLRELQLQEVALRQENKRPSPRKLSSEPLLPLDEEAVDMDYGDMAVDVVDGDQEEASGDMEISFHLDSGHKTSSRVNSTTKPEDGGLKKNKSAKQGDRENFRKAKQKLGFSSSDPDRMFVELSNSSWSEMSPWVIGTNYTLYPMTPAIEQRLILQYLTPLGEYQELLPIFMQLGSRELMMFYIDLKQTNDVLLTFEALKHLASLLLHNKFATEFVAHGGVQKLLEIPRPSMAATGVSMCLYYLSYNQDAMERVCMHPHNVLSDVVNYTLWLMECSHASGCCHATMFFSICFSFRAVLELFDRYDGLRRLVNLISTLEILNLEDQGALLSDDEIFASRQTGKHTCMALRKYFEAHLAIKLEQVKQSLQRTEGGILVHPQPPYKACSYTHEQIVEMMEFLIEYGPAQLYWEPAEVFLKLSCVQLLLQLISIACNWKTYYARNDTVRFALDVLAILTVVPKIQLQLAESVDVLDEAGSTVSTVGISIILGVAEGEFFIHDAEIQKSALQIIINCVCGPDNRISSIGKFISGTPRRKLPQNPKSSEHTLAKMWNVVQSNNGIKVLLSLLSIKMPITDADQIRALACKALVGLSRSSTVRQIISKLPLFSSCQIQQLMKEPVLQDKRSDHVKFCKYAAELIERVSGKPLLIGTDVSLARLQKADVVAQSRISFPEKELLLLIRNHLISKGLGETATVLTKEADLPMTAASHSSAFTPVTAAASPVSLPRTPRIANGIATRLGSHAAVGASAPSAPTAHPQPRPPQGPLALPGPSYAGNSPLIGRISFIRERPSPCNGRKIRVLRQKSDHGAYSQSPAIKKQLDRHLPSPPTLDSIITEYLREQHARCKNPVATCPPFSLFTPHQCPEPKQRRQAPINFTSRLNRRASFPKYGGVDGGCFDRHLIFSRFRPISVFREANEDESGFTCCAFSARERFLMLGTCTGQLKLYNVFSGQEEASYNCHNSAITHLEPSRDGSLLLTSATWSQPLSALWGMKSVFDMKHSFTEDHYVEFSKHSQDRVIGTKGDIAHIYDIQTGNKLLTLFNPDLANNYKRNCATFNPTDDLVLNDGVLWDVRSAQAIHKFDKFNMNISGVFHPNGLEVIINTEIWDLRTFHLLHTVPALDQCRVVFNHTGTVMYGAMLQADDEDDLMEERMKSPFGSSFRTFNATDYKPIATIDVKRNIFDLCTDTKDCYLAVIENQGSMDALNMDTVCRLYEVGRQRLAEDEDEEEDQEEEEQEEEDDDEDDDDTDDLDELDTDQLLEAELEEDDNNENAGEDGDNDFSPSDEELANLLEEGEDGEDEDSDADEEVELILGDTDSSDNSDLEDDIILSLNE

Results are given in words; binding and its absence hold for the method and conditions named. Some entries that bind do so weakly or less than the wild type. Where a sequence is shown, tags or fusion partners need not be part of it.

On to “DCAF1 subunit of the Cul4a/DDB1 E3 ubiquitin ligase, fused to the Gal4 activation domain (from UniProt Q9Y4B6 1-1507)”, for which the binding entry in assay [1] is listed as “binds”.
For the molecule “UNG2, nuclear form of the DNA repair enzyme, fused to the Gal4 activation domain (from UniProt P13051-1 1-313)”, the binding entry in assay [1] and in assay [2] was “binds” in each case.

B1: nucleoporin hCG1, fused to the Gal4 activation domain (protein, UniProt O15504 1-423)
chain: MAICQFFLQGRCRFGDRCWNEHPGARGAGGGRQQPQQQPSGNNRRGWNTTSQRYSNVIQPSSFSKSTPWGGSRDQEKPYFSSFDSGASTNRKEGFGLSENPFASLSPDEQKDEKKLLEGIVKDMEVWESSGQWMFSVYSPVKKKPNISGFTDISPEELRLEYHNFLTSNNLQSYLNSVQRLINQWRNRVNELKSLNISTKVALLSDVKDGVNQAAPAFGFGSSQAATFMSPGFPVNNSSSDNAQNFSFKTNSGFAAASSGSPAGFGSSPAFGAAASTSSGISTSAPAFGFGKPEVTSAASFSFKSPAASSFGSPGFSGLPASLATGPVRAPVAPAFGGGSSVAGFGSPGSHSHTAFSKPSSDTFGNSSISTSLSASSSIIATDNVLFTPRDKLTVEELEQFQSKKFTLGKIPLKPPPLELLNV
On to B1, for which the binding result in assay [1] and in assay [2] was “binds” throughout.
